Article PMC5645986
No constants are given. Whether binding was seen depends on the method and setting. Binding seen in cells or lysates may run through a third protein. Some results given as binding are weak or reduced against the parent protein; the word gives no strength.

Amino acid sequences for entries named in this document (tags omitted).
UniProt Q04206: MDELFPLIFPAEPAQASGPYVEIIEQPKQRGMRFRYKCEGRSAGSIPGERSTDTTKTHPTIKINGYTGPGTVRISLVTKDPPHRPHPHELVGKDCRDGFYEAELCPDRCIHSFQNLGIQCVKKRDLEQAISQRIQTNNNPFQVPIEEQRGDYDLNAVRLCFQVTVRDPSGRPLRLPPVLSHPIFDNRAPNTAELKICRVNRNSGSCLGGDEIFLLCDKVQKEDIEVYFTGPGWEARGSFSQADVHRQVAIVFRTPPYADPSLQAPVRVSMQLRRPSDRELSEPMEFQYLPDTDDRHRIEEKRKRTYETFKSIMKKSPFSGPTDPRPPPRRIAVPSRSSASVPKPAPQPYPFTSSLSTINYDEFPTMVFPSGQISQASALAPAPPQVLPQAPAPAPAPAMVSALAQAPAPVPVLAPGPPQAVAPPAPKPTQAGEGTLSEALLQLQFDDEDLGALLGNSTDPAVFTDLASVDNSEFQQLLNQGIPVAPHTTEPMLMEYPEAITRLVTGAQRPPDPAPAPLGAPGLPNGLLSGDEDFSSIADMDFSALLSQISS
UniProt Q9P286: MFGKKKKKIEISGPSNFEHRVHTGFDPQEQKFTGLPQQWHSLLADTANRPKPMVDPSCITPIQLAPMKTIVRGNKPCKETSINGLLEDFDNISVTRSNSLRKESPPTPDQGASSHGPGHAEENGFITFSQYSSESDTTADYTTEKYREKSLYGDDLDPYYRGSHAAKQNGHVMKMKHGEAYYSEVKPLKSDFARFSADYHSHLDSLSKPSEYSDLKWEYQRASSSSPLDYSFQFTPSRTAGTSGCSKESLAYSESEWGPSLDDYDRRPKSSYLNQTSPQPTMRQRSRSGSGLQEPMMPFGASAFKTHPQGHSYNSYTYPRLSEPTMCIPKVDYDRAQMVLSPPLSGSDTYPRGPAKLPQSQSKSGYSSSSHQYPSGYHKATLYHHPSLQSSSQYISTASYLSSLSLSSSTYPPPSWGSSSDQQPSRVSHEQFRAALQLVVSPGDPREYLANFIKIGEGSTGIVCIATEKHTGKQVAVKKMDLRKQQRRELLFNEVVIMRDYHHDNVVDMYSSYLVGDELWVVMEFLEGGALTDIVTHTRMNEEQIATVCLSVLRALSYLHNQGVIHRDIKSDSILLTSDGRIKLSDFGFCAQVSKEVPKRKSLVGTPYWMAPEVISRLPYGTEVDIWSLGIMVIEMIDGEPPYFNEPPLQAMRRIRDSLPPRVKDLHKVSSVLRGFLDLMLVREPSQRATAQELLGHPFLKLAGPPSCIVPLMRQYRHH

Key:
[1] = target: p65 subunit of nuclear factor-kappaB (NF-κB), endogenous (human (endogenous in MDA-MB-231)) (UniProt Q04206); test: co-IP; MDA-MB-231 cells transfected with the plasmids; RIPA lysates (1000 μg) with protease/phosphatase inhibitors precipitated 12-16 h with anti-p65 (Rabbit IgG as control), Protein A/G beads 2 h at 4 °C; blotted with anti-Myc and anti-p65
[2] = target: p65 subunit of nuclear factor-kappaB (NF-κB), expressed from pcDNA3.1-p65 (UniProt Q04206); test: as above

With “p21cdc42/rac1-activated kinase 5 (PAK5), Myc-tagged (from UniProt Q9P286 1-719) (enzyme)” the binding [1] was “binds” and the binding [2] was “binds”.
